Laboratory results published in publication PMC7708056 (2020).

By UniProt entry, the sequences of proteins in these tests, tags left out. Residues count along the entry.
UniProt P09012, 2-98 Y31H/Q36R: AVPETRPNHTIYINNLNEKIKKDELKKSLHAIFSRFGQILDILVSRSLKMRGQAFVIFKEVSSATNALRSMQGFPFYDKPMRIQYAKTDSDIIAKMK

Target: U1A protein (RNA-binding domain, crystallization module) Y31H,Q36R (UniProt P09012)
Assay: X-ray crystal structure
Conditions: NAD+ and Mg2+ bound, RNA:U1A 1:1.2; Complex formation for crystals: 50 mM HEPES pH 7.0, 50 mM NaCl, 5 mM MgCl2, RNA:NAD+ 1:15, on ice; crystals at 16 C in 0.2 M Mg(OAc)2, 0.1 M NaAsO2 pH 6.5, 30% MPD; recombinant protein; residues 2-98; protein details: His10-SUMO N-terminal, cleaved by ULP1

Does “GGCGCAACAUCCCCGCCGGUUGGGCGCAUUGCACUCCGCGCAGUGAACCGGCUGCGCC [17delU1A-D1 (NAD+ riboswitch domain 1 with U1A-binding loop)]” bind?
Result: binds

Construct, isoform or probe ends are uncertain for at least one entry. At least one verdict rests on a figure or table, not on a statement of the authors.
